The text below walks through data of publication doi:10.1101/2024.09.19.614007 (bioRxiv, 2024).

No constants are given. Whether binding was seen depends on the method and setting. Some results given as binding are weak or reduced against the parent protein; the word gives no strength.

Experiment [1] addresses Escherichia coli glutamate kinase (Escherichia coli) (UniProt P0A7B5). The experiment is described as follows: negative-stain electron microscopy.
Experiment [2] concerns the target truncated-EcGK (PUA domain deletion mutant, EcGK truncated after residue 274) (Escherichia coli) (UniProt P0A7B5). As to the kind of experiment: negative-stain electron microscopy.

B1: Escherichia coli glutamate kinase (enzyme, UniProt P0A7B5 1-367, looked up)
chain: MSDSQTLVVKLGTSVLTGGSRRLNRAHIVELVRQCAQLHAAGHRIVIVTSGAIAAGREHLGYPELPATIASKQLLAAVGQSRLIQLWEQLFSIYGIHVGQMLLTRADMEDRERFLNARDTLRALLDNNIVPVINENDAVATAEIKVGDNDNLSALAAILAGADKLLLLTDQKGLYTADPRSNPQAELIKDVYGIDDALRAIAGDSVSGLGTGGMSTKLQAADVACRAGIDTIIAAGSKPGVIGDVMEGISVGTLFHAQATPLENRKRWIFGAPPAGEITVDEGATAAILERGSSLLPKGIKSVTGNFSRGEVIRICNLEGRDIAHGVSRYNSDALRRIAGHHSQEIDAILGYEYGPVAVHRDDMITR
Take B1: the binding entry in experiment [1] is “binds weakly”.

B2: truncated-EcGK (PUA domain deletion mutant, EcGK truncated after residue 274) (domain or fragment, UniProt P0A7B5 1-274)
chain: MSDSQTLVVKLGTSVLTGGSRRLNRAHIVELVRQCAQLHAAGHRIVIVTSGAIAAGREHLGYPELPATIASKQLLAAVGQSRLIQLWEQLFSIYGIHVGQMLLTRADMEDRERFLNARDTLRALLDNNIVPVINENDAVATAEIKVGDNDNLSALAAILAGADKLLLLTDQKGLYTADPRSNPQAELIKDVYGIDDALRAIAGDSVSGLGTGGMSTKLQAADVACRAGIDTIIAAGSKPGVIGDVMEGISVGTLFHAQATPLENRKRWIFGAPP
In the case of B2, the binding result in experiment [2] is “no binding (tested: about 2 μM)”.
